In publication PMC5623908 one finds binding data, which are given here for three substances.

Protein sequences, listed by entry. Tags and fused reporters are not part of them.
UniProt Q04206: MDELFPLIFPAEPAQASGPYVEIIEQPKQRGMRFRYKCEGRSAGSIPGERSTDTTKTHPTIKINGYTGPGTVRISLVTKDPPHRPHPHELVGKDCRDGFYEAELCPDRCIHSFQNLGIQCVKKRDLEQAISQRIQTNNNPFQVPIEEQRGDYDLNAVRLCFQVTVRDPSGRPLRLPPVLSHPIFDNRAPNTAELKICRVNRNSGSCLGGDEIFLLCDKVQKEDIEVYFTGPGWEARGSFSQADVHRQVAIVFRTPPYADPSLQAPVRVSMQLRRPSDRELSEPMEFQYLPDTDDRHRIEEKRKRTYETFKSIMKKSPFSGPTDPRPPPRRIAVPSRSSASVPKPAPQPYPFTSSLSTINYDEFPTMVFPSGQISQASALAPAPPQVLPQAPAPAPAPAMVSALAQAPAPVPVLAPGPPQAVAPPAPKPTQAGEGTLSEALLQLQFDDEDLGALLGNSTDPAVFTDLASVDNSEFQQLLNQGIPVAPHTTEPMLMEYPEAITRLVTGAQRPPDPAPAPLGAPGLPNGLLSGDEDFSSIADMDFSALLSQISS
UniProt P46937: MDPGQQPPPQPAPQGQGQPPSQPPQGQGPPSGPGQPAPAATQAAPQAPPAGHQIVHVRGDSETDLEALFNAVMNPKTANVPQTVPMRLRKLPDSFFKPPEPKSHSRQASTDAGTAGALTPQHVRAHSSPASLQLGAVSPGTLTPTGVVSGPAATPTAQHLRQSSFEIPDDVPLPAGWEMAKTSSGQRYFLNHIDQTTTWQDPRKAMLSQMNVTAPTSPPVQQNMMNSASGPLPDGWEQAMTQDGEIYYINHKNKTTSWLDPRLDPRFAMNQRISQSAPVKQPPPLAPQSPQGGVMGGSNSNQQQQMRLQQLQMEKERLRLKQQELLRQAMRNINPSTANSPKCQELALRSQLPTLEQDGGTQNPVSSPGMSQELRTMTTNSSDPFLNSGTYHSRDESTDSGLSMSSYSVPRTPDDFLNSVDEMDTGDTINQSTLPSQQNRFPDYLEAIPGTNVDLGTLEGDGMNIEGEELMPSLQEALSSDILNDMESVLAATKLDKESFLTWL

One assay deals with T1, HA-IKKβ (UniProt O14920).
T1 sequence: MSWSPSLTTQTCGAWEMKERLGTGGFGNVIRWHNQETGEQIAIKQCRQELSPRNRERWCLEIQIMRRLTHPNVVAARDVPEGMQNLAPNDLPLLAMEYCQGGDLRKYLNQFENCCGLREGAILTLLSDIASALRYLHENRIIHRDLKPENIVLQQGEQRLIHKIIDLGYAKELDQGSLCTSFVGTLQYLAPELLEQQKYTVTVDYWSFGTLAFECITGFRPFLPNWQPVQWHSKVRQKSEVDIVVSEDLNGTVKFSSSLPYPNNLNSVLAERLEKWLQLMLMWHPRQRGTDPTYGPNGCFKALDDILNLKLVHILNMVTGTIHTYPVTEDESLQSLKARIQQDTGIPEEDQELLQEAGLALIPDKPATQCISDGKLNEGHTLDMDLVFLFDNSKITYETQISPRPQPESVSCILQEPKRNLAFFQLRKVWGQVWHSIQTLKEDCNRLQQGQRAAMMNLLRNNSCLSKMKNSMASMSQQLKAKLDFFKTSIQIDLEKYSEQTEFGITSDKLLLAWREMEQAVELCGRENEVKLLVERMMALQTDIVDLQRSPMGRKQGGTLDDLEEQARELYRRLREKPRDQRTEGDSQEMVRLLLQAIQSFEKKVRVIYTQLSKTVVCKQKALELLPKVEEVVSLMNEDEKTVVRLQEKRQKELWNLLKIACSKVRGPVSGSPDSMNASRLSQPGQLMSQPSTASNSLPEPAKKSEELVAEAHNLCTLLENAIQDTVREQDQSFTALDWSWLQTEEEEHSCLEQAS
Put plainly: co-IP; 293T cells co-transfected with both tagged proteins; lysis in 50 mM Tris-HCl pH 7.4, 150 mM NaCl, 1% Triton X-100; antibody-conjugated beads 3 h; western blot; for GFP-YAP and Myc-p65 also after 10 μM TPCA-1 or 10 μM IKK-16 for 18 h. (In general: In western blotting, separated proteins are transferred to a membrane and probed.)

The next assay has as its target T2, HA-IKKε (UniProt Q14164).
T2 sequence: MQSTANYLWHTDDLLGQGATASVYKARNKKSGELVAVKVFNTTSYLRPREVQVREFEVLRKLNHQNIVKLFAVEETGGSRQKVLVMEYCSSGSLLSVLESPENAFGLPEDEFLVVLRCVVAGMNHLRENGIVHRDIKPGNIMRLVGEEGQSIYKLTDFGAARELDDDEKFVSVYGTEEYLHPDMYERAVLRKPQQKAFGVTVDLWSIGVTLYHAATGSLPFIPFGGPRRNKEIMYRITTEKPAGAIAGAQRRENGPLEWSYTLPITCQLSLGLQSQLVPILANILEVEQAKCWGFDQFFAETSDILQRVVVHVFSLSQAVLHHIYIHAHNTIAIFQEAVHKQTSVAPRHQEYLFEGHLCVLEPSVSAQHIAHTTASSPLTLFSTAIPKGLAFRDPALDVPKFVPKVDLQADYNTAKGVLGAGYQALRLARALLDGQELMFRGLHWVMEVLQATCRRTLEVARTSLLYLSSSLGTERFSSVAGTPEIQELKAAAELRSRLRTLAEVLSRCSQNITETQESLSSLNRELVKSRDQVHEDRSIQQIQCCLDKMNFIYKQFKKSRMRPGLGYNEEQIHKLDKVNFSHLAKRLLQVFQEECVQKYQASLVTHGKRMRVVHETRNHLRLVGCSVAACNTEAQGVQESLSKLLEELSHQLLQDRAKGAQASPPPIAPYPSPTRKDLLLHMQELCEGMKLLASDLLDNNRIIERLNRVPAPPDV
The description is as above.

The target of the next assay is Myc-p65 (UniProt Q04206). The description is as above.
The next assay addresses Flag-YAP (UniProt P46937). The description is as above.
In assay [1] the target is YAP (endogenous, MCF7) (human (endogenous in MCF7)) (UniProt P46937). Put plainly: co-IP; endogenous proteins of MCF7 cells; immunoprecipitation with YAP antibody (rabbit IgG as control); cells treated with 10 μM TNFα for 12 h (p65), or with 10 μM TPCA-1 or 10 μM IKK-16 for 12 h or siRNA against IKKβ and/or IKKε (TEAD4).

These are yes or no findings as the source states them, for the method shown. In cells and extracts the contact can be indirect. Some binding calls cover weakened binding; strength is not graded here. For some assays here: Tags and fused reporters may be left off the sequences shown.

Take GFP-YAP (from UniProt P46937 1-504): the binding result with HA-IKKβ, in the assay with HA-IKKε and with Myc-p65 was “binds” in each case.
GFP-p65 (from UniProt Q04206 1-551): in the assay with Flag-YAP, the binding entry is “binds”.
As for “p65 (endogenous, MCF7) (from UniProt Q04206 1-551)”, the binding entry in assay [1] is given as “binds”.
